# Results published in patent US20240158500A1 (UCL BUSINESS, published 2024).
# No constants are given. Whether binding was seen depends on the method and setting. Some binding calls cover weakened binding; strength is not graded here.
# T1: purified CD160 (SPR analyte) (UniProt O95971)
# T1 sequence (looked up): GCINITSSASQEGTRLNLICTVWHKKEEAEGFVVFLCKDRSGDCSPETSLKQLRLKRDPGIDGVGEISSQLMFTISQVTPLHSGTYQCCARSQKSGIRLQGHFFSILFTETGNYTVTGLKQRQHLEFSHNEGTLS
# T2: CD160 transmembrane (TM) isoform, on engineered cells (UniProt O95971)
# T2 sequence (looked up): T1 sequence (looked up)
# B1: anti-CD160 scFv clone 6 (SC14) (scFv)
# scFv: EVQLVESGGGFVQPGRSLKLSCAASGFTFSNYAMAWVRQAPTKGLEWVASINSGGGDSYYRDSVKGRFTISRDNAKNTQYLQMDSLRSEDTATYYCATHNYGSTIFDYWGQGAMVTVSSGGGGSGGGGSGGGGSEIILTQSPTTMTASPGEKVTITCRASSSVSYMHWYQQKPGASPKPWIYETSKLASGVPDRFSGSGSGTSYSLTINNMEAEDAATYYCQQWNYPSMYTFGAGTKLELKR
# notes: Rat scFv, VH-linker-VL
# B2: anti-CD160 scFv clone 3 (C83) (scFv)
# scFv: QVNLQESGPGLVQPSETLSLTCTVSGFSLTSYGVYWVRQPPGKGLEWMGRIWNDGGTDYNPALKSRLSISRDTSKSQVFLKLNSLQTEDTAIYFCARGWTHWGQGTLVTVSSGGGGSGGGGSGGGGSDIQMTQSPASLSASLGETVSIECLASEDIYNNLAWYQQKPGKSPQLLIYYASSLQDGVPSRFSGSGSGTQYSLKINSLESEDVATYFCLQDSEYPPTFGGGTKLELKR
# B3: anti-CD160 scFv clone 2 (C25) (scFv)
# scFv: EVQLVESGGDLVQPGRSLKLSCAASGFTFSNYGMAWVRQAPTKGLEWVASVSNGGGNTYYRDSVKGRFTISRDNAKNTQYLQMDSLRSEDTATYYCVTHNYESTVFDYWGQGAMVTVSSGGGGSGGGGSGGGGSEIVLTQSPTTMTASPGEKVTITCRASSSVSYMHWYQQKPGASPKPWIYETSKLASGVPDRFSGSGSGTSYSLTINNMEAEDAATYYCQQWNYPSMYTFGPGTKLELKR
# B4: anti-CD160 scFv clone 1 (C123) (scFv)
# scFv: EVKLVESGGGLVQPGRSLKLSCAASGFIFSNYAMAWVRQAPTKGLEWVASVNSGGANTYYRDSVKGRFTISRDNAKNTQYLHIDSLRSEDTATYYCATHNYESTVFDYWGQGAMVTVSSGGGGSGGGGSSGGGGSEIVLTQSPTTMTASPGEKVTITCRASSSVSYMHWYQQKPGASPKPWIYETSKLASGVPDRFSGSGSGTSYSLTINNMEAEDAATYYCQQWNYPSMYTFGAGTKLELKR
# notes: Rat scFv, VH-linker-VL
# B5: anti-CD160 scFv clone 5 (C10) (scFv)
# scFv: QVQLKESGPGLVQPSETLSLTCTVSGFSLTNYGINWFRQPPGKGLEWMGTIWNDGGTDYNSALKSRLTISRDTSKSQVFLKMNSLQTEDTAIYFCARGMEAWGQGASVTVSSGGGGSGGGGSGGGGSDIQLTQSPSLLSASVGDRVTLSCKGSQNINNYLAWYQQKLGEAPKLLIYNTNSLQTGIPSRFSGSGSGTDYTLTISSLQPEDFATYFCLQHNSGYTFGAGTKLEIKR
# notes: Rat scFv, VH-linker-VL; also called 010
# B6: anti-CD160 scFv clone 9 (PB6) (scFv)
# scFv: EVQLVESGGGLVQPGRSLKLSCAASGFTFSNYAMAWVRQAPTKGLEWVASISSGGGDTYYRDSVKGRFTISRDNSKNTQYLQMDSLRSEDTATYYCATHNYESTVLITWGQGASVTVSSGGGGSGGGGSGGGGSEIVLTQSPTTTAASPGERVTITCRASSSVSYMHWYQQKPGASPKPWIYETSKLASGVPDRFSGSGSGTSYSLTINNMEAEDAATYYCQQWNYPSMYTFGAGTKLEIKR
# notes: Rat scFv, VH-linker-VL
# B7: anti-CD160 scFv clone 11 (PB10) (scFv)
# scFv: EVQLVESGGGLVQPGRSLKLSCAASGFTFSNYGMAWVRQAPTKGLEWVASINTSGGSTYYRDSVKGRFTISRDNAKSTLYLQMDSLRSEDTATYYCATIYYHDGSYYYAGWFAYWGQGTLVTVSSGGGGSGGGGSGGGGSDIVLTQSPALAVSPGERVSISCRASESVSTLMHWYQQKLGQQPKLLIYGASNLESGVPARFSGSGSGTDFTLNIDPVEADDIATYFCQQSWNGPWTFGGGTKLELKR
# notes: Rat scFv, VH-linker-VL
# B8: anti-CD160 scFv clone 8 (PB9) (scFv)
# scFv: QVNLQESGPGLVQPSETLSLTCTVSGFSLTNYGINWFRQPPGKGLEWMGTIWNDGGTDYNSALKSRLSISRDTSKSQVFLKMNSLQTEDTAIYFCARGMDAWGQGASVTVSSGGGGSGGGGSGGGGSDIQMTQSPASLSASLGETVSIECLASEDIYNNLAWYQQKPGKSPQLLIYYANSLQDGVPSRFSGSGSGTQYSLKINSLQSEDVATYFCQQYNNYPFTFGSGTKLELKR
# notes: Rat scFv, VH-linker-VL
# Biological target: T1, purified CD160 (SPR analyte)
# Experiment: SPR (Biacore T200), scFv captured on a CM5 chip, CD160 injected at 3.70, 11.11, 33.33, 100 and 300 nM; no unit is printed on the time axis
row,Binder,binding
1,B1,binds
2,B2,binds
3,B3,binds
4,B4,binds
5,B5,binds

# Biological target: T2, CD160 transmembrane (TM) isoform, on engineered cells
# Experiment: staining of cells expressing the TM isoform of CD160 (FIG. 11)
row,Binder,binding
1,B1,binds
2,B6,binds
3,B2,binds
4,B7,binds
5,B3,binds
6,B4,binds
7,B5,binds
8,B8,binds
